Experimental data: PubChem BioAssay AID1224828 (NIAID, 2016)
Aim: 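Knock-downs that increase or decrease LPS-induced p65 nuclear translocation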 (primary screen). Cell system: mouse RAW264.7 G9 macrophage reporter cells (GFP-p65, Tnf promoter-mCherry). Reagents: siRNA pool against mouse genes, 100 nM. Timing: 2 days siRNA transfection, then 40 min LPS before fixation. Challenge: LPS (Salmonella minnesota R595) at 10 ng/ml. Read-out: 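Imaged p65 nuclear translocation ratio, normalised to the plate median, converted to robust z-scores and averaged across two replicates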. Direction: p65 translocation robust z-score: higher = more nuclear NF-kappaB p65 after LPS than the plate median; nuclear/cytoplasmic p65 ratio: higher = more nuclear NF-kappaB p65. Hit rule: 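Active if robust z is above 3.3 (negative regulators) or below -1.56, the Tlr4 control median (positive regulators); activity score 50 or more; control wells not called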. Calls: active = hit (p65 shift raised or lowered); inactive = no clear change.
The deposit covers about 17,000 reagents; this is an unselected part. Over the whole deposit, 762 (4.5%) got an active call. 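Active calls include both raised and lowered p65 entry, mostly lowered; wells with fewer than 50 cells lack a z-score.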 Raw values vary from plate to plate and are shown uncorrected. Entries without a mark were called inactive.

| target | p65 translocation robust z-score | nuclear/cytoplasmic p65 ratio, rep 1 | nuclear/cytoplasmic p65 ratio, rep 2 | low cell count flag |
| --- | --- | --- | --- | --- |
| Or1e34 | – | 1.4 | 1.35 | fewer than 50 cells per well; well left out of scoring |
| Or6k8 | 0.23 | 1.41 | 1.3 | enough cells to score |
| St18 | 0.67 | 1.22 | 1.31 | enough cells to score |
| Or6c215 | -0.46 | 1.38 | 1.15 | enough cells to score |
| Phkb | 0.92 | 1.61 | 1.54 | enough cells to score |
| Rps14 | -1.39 | 1.19 | 1.1 | enough cells to score |
| Khnyn | 1.17 | 1.57 | 1.72 | enough cells to score |
| Bag2 | 1.38 | 1.85 | 1.79 | enough cells to score |
| Ssbp3 | -0.17 | 1.31 | 1.21 | enough cells to score |
| Rrp15 | 0.68 | 1.11 | 1.33 | enough cells to score |
| Ovgp1 | – | 1.44 | 1.24 | fewer than 50 cells per well; well left out of scoring |
| Oas1c | 1.97 | 2.03 | 1.81 | enough cells to score |
| Gba2 | -0.9 | 1.42 | 1.38 | enough cells to score |
| Try4 | -0.96 | 1.27 | 1.11 | enough cells to score |
| Gpr50 | 0.04 | 1.49 | 1.61 | enough cells to score |
| Prdm1 | 1.05 | 1.55 | 1.63 | enough cells to score |
| Gypc | – | 1.39 | 1.09 | fewer than 50 cells per well; well left out of scoring |
| Klf10 | -0.48 | 1.46 | 1.45 | enough cells to score |
| Zfx | -1.14 | 1.37 | 1.33 | enough cells to score |
| Mdh1b | -0.04 | 1.38 | 1.41 | enough cells to score |
| Ncf4 | 1.29 | 2.11 | 1.68 | enough cells to score |
| Mthfd2 | -0.28 | 1.68 | 1.6 | enough cells to score |
| Or9r3 | – | 1.44 | 1.12 | fewer than 50 cells per well; well left out of scoring |
| Rhcg | – | 1.27 | 1.14 | fewer than 50 cells per well; well left out of scoring |
| Calhm5 | -1.52 | 1.29 | 1.66 | enough cells to score |
| Elac1 | -1.25 | 1.32 | 1.18 | enough cells to score |
| Srsf9 | 0.13 | 1.47 | 1.23 | enough cells to score |
| Atp5pf | -0.47 | – | 1.53 | enough cells to score |
| Chrnb3 | -0.35 | 1.45 | 1.3 | enough cells to score |
| Bnip3 | -0.03 | 1.63 | 1.59 | enough cells to score |
| Epha3 | -0.02 | 1.65 | 1.41 | enough cells to score |
| Ofcc1 | 0.52 | 1.78 | 1.61 | enough cells to score |
| Ifna12 | -1.14 | 1.27 | 1.28 | enough cells to score |
| Stag1 | 1.92 | 1.68 | 1.11 | enough cells to score |

Targets above whose target name starts with E or e (2):
| target | p65 translocation robust z-score | nuclear/cytoplasmic p65 ratio, rep 1 | nuclear/cytoplasmic p65 ratio, rep 2 | low cell count flag |
| --- | --- | --- | --- | --- |
| Elac1 | -1.25 | 1.32 | 1.18 | enough cells to score |
| Epha3 | -0.02 | 1.65 | 1.41 | enough cells to score |

Further results:
| target | p65 translocation robust z-score | nuclear/cytoplasmic p65 ratio, rep 1 | nuclear/cytoplasmic p65 ratio, rep 2 | low cell count flag |
| --- | --- | --- | --- | --- |
| Smim48 | -2.15 (active) | 1.06 | 1.21 | enough cells to score |
| Slc25a28 | -1.27 | 1.22 | 1.12 | enough cells to score |
| Stx18 | -2.96 (active) | 1.03 | 1.08 | enough cells to score |
| Emx1 | -0.71 | 1.41 | 1.24 | enough cells to score |
| Cript | – | 1.11 | 1.44 | fewer than 50 cells per well; well left out of scoring |
| Vopp1 | -1.12 | 1.31 | 1.48 | enough cells to score |
| R3hdm4 | 0.03 | 1.51 | 1.53 | enough cells to score |
| Asf1a | 0.44 | 1.67 | 1.57 | enough cells to score |
| Pira6 | 0.23 | 1.42 | 1.23 | enough cells to score |
| 4921504E06Rik | 0.07 | 1.88 | 1.27 | enough cells to score |
| Htr6 | 0.68 | 1.56 | 1.73 | enough cells to score |
| Ccdc136 | -0.28 | 1.62 | 1.7 | enough cells to score |
| Gcdh | -1.1 | 1.26 | 1.26 | enough cells to score |
| Mtcl3 | -0.8 | 1.18 | 1.43 | enough cells to score |
| Vmn1r222 | – | 1.22 | 1.12 | fewer than 50 cells per well; well left out of scoring |
| Rab3d | -0.8 | 1.41 | 1.42 | enough cells to score |
| Rps7 | -0.29 | 1.43 | 1.19 | enough cells to score |
| Mars2 | 1.29 | 1.77 | 2 | enough cells to score |
| Emp2 | 0.71 | 1.77 | 1.49 | enough cells to score |
| Vill | -0.5 | 1.34 | 1.16 | enough cells to score |
| Rcan1 | -2.24 (active) | 1.27 | 1.08 | enough cells to score |
| Zfp36l1 | 0.52 | 1.61 | 1.62 | enough cells to score |
| Btbd35f1 | -0.06 | 1.38 | 1.42 | enough cells to score |
| Syncrip | 0.76 | 1.8 | 1.53 | enough cells to score |
| Ccnb3 | -0.75 | 1.35 | 1.3 | enough cells to score |
| Or5m3b | 0.82 | 1.77 | 1.71 | enough cells to score |
| Zfp786 | 0.11 | 1.41 | 1.53 | enough cells to score |
| Zic5 | 0.68 | 1.48 | 1.34 | enough cells to score |
| Med1 | 0.19 | 1.48 | 1.47 | enough cells to score |
| St3gal6 | 1.78 | 1.68 | 1.43 | enough cells to score |
| Jak1 | 0.3 | 1.75 | 1.4 | enough cells to score |
| Dnajb13 | 0.3 | 1.42 | 1.47 | enough cells to score |
| H2ap | -1.14 | 1.15 | 1.27 | enough cells to score |
| Serpinb13 | 0.9 | 1.59 | 1.77 | enough cells to score |
| Or5k8 | -0.82 | 1.48 | 1.29 | enough cells to score |
| Map4k4 | 0.11 | 1.48 | 1.39 | enough cells to score |
| Trpa1 | 0.41 | 1.74 | 1.63 | enough cells to score |
| Ccdc85a | – | 1.45 | 1.39 | fewer than 50 cells per well; well left out of scoring |
| Soat1 | 0.53 | 1.56 | 1.7 | enough cells to score |
| Mcm6 | 1.59 | 1.65 | 1.55 | enough cells to score |
| Slc33a2 | – | 1.03 | 1.36 | fewer than 50 cells per well; well left out of scoring |
